The assay addresses YFP-BubR1 (human) (UniProt O60566). Briefly: co-IP; YFP-tagged Bub1 or BubR1 proteins precipitated with GFP-Trap agarose beads from lysates of nocodazole-arrested mitotic HeLa cells, low-salt buffer (Kruse et al., 2013); quantitative western blot for B56α and YFP.

The chains behind the UniProt entries cited, without tags or fusion partners.
UniProt O60566: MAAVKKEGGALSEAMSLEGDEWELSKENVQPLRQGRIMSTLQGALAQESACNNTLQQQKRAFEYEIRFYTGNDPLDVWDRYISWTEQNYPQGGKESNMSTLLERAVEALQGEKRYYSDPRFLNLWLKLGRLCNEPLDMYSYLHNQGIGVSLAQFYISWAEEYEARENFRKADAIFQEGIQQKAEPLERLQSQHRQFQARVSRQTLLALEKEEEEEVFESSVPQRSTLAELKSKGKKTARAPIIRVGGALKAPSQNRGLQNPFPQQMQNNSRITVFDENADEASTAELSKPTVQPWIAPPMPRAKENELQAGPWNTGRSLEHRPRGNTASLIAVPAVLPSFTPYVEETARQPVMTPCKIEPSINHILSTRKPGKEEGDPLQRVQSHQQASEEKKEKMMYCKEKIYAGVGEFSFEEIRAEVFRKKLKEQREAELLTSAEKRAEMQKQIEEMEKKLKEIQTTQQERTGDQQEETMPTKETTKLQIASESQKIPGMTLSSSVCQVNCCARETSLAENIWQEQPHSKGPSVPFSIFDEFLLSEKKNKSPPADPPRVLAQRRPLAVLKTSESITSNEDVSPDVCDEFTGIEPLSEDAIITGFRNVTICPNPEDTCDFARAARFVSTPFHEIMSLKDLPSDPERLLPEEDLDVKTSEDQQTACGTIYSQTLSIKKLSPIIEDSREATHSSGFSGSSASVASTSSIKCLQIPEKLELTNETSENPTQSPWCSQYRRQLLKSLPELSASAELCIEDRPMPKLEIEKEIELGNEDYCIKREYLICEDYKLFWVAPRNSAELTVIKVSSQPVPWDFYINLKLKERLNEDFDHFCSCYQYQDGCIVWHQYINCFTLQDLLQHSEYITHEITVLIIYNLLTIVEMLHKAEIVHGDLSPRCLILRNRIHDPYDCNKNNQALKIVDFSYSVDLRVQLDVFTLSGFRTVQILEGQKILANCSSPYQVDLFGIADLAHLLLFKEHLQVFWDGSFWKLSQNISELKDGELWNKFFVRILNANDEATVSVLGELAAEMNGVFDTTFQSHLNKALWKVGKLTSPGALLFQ
UniProt Q15172: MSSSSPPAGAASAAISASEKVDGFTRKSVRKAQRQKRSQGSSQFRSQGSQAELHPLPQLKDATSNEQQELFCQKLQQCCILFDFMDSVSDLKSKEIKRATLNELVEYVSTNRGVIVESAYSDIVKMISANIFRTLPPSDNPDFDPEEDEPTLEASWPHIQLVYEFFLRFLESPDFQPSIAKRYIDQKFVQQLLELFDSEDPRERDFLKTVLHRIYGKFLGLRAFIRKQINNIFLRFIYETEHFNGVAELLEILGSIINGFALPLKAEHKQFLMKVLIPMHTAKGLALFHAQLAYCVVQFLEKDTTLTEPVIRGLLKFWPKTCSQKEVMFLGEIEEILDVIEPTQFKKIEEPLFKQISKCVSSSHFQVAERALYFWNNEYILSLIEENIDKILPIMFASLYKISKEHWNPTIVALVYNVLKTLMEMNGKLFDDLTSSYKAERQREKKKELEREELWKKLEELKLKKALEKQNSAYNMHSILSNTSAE

These are yes or no findings as the source states them, for the method shown. In cells and extracts the contact can be indirect. Some entries that bind do so weakly or less than the wild type.

As to “PP2A-B56 (detected as B56α) (from UniProt Q15172 1-486)”, the binding result is reported as “binds”.

These data come from publication PMC10155811.
